Measured values: patent US20250346660A1 (PARAGON THERAPEUTICS, published 2025)
Results are given in words; binding and its absence hold for the method and conditions named. Some entries that bind do so weakly or less than the wild type.

Molecular target: T1, Recombinant Human IL-23 (human, UniProt Q9NPF7 20-189; P29460 23-328)
T1 sequence (looked up) 1: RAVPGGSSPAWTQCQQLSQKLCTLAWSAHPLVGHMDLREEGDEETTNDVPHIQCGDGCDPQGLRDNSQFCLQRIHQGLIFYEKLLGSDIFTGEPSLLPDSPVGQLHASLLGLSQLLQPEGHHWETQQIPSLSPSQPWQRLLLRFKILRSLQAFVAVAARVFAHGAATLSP
T1 sequence (looked up) 2: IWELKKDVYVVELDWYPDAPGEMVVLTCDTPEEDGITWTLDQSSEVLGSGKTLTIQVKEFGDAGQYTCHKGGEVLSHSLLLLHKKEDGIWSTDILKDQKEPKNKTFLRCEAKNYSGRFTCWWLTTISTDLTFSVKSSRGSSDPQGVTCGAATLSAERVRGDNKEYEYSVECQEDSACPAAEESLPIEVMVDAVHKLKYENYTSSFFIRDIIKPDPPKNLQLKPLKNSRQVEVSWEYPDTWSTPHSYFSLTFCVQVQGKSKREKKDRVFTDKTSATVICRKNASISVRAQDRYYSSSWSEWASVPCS
Experiment: summary of Examples 3-6 (SPR)

binding: binds
B1: IL-23 antibody clone 107 (antibody, human IgG1, kappa, L234A L235A, V domains shown)
VH: QVQLVQSGAEVKKPGSSVKVSCKASGYTFTAQTIHWMRQAPGQGLEWIGYIYPRDDTPKYNPNFKGKVTITADKSTSTAYMELSSLRSEDTAVYYCAIPDRSGYAWFDYWGQGTLVTVSS
VL: DIQMTQSPSSLSASVGDRVTITCKASRDVAIAVAWYQQKPGKVPKLLIYWASTRHTGVPSRFSGSGSRTDFTLTISSLQPEDVADYFCHQYSSYPFTFGSGTKLEIKR
